## Screening data

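Cell survival of the PAX8-independent IOSE-T80 line, measured by CellTiterGlo ATP luminescence after four days of exposure.
Percent change in signal scaled so neutral controls are 0 and the cytotoxic control is -100; more negative values mean greater loss of viability.
Per repeat run, active means fitted AC50 at or below twice the top valid dose; inactive means a flat curve between -30% and 30%, an opposite effect, or AC50 above that limit; inconclusive means a flat -30% to -70% curve, a poor fit, or runs that disagree.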

Values are in %.
Every entry below has the call inconclusive.
Only part of the assay is shown, chiefly results filed as inconclusive.

Compound	tested on / at	activity change (%)
O=S(=O)(Nc1cccc(-c2cn3cccnc3n2)c1)c1ccc(Cl)cc1	at 35 µM (top of the series)	2.91
Nc1ncn([C@H]2C[C@H](O)[C@@H](CO)O2)c(=O)n1	at 35 µM (top of the series)	5.689
C=CC(=O)N1C/C(=C/c2ccc(F)cc2)C(=O)/C(=C\c2ccc(F)cc2)C1	at 35 µM (top of the series)	4.867
COc1ccc(S(=O)(=O)N(C)C[C@H]2Oc3ccc(NC(=O)Nc4ccc(C(F)(F)F)cc4)cc3C(=O)N([C@H](C)CO)C[C@@H]2C)cc1	at 35 µM (top of the series)	5.216
Cc1nn(-c2ccccc2)c(Cl)c1CN(C(=O)CCl)c1cccc2ccccc12	at 35 µM (top of the series)	9.224
CCN1CCN(Cc2ccc(NC(=O)c3ccc(C)c(NC(=O)c4c[nH]c5cc(C(F)(F)F)ccc5c4=O)c3)cc2C(F)(F)F)CC1	at 35 µM (top of the series)	12.4
Cc1cccc2sc(N(CCCN(C)C)C(=O)CCS(=O)(=O)c3ccccc3)nc12	at 35 µM (top of the series)	14.84
O=C1[C@@H]2Cc3c([nH]c4ccccc34)C(c3cccc(Br)c3)N2C(=O)CN1C1CCN(Cc2ccccc2)CC1 (some centres not stated)	at 35 µM (top of the series)	6.735
O=S(=O)(c1ccccc1F)N1CC[C@@H]2[C@H]1c1cc(-c3cccc(F)c3)ccc1N[C@@H]2CO	at 35 µM (top of the series)	11.13
C=C1CC(COc2ccc3c(C)c(Cl)c(=O)oc3c2)(c2ccccc2)OC1=O (configuration not stated)	at 35 µM (top of the series)	0.423
CCOc1ccccc1NC(=O)c1nc(S(=O)(=O)Cc2cccc(C)c2)ncc1Cl	at 35 µM (top of the series)	22.68
CCC1CCCCN1S(=O)(=O)c1ccc(NC(=O)c2nc(S(C)(=O)=O)ncc2Cl)cc1 (configuration not stated)	at 35 µM (top of the series)	6.196
CC(=O)NC(c1ccc(C(C)C)cc1)c1ccc2cccnc2c1O (configuration not stated)	at 35 µM (top of the series)	6.835
CCCCCC(CC(=O)NO)C(=O)NC(C(=O)N1CCCC1CO)C(C)C (configuration not stated)	at 35 µM (top of the series)	3.144
OC[C@H]1O[C@@H](n2cnc3c(NCc4ccco4)ncnc32)[C@H](O)[C@@H]1O	at 35 µM (top of the series)	9.835
Cc1cc(C)c2c(N)c(C(=O)Nc3ncc(C)s3)sc2n1	at 35 µM (top of the series)	-93.94
O=C(CCS(=O)(=O)c1ccccc1)Nc1nc2ccc(F)cc2s1	at 35 µM (top of the series)	8.626
CC(=O)Nc1ccc(Sc2ccc([N+](=O)[O-])o2)cc1	at 35 µM (top of the series)	4.748
O=C(Nc1ccc([N+](=O)[O-])cc1)C(=O)Nc1cccc(C(=O)O)c1	at 35 µM (top of the series)	7.503
CN1CC(=O)N2C(c3ccc(Cl)cc3)c3[nH]c4ccccc4c3C[C@H]2C1=O (some centres not stated)	at 35 µM (top of the series)	9.674
NC1=C(Br)C(=O)c2ncccc2C1=O	at 35 µM (top of the series)	2.441
Oc1ccc(C[C@H]2CNC(=S)N2CC2CCCN2C[C@H](Cc2ccc(O)cc2)N2C[C@H](Cc3ccc(O)cc3)N(CC3CCCCCC3)C2=S)cc1 (some centres not stated)	at 35 µM (top of the series)	4.976
C[C@H](CO)N1C[C@H](C)[C@@H](CN(C)C(=O)C2CCCCC2)OCCCC[C@H](C)Oc2ccc(NS(=O)(=O)c3ccc(Cl)cc3)cc2C1=O	at 35 µM (top of the series)	2.926
C[C@H](O)[C@@H]1CN2CCc3c([nH]c4ccc(-c5ccc6c(c5)OCO6)cc34)[C@@H]2C[C@@H]1N(C)C(=O)NC1CCCCC1	at 35 µM (top of the series)	-68.89
COc1ccc(-c2cc(CNc3nc(NC(C)C)nc4cc(-c5ccccc5)sc34)on2)cc1	at 35 µM (top of the series)	3.304

2 of the entries, repeated:

- O=C(Nc1ccc([N+](=O)[O-])cc1)C(=O)Nc1cccc(C(=O)O)c1 [at 35 µM (top of the series)] : activity change 7.503%
- C[C@H](CO)N1C[C@H](C)[C@@H](CN(C)C(=O)C2CCCCC2)OCCCC[C@H](C)Oc2ccc(NS(=O)(=O)c3ccc(Cl)cc3)cc2C1=O [at 35 µM (top of the series)] : activity change 2.926%

Data taken from PubChem BioAssay AID687032, deposited by Broad Institute (2013).